In the supplement of paper PMC3682954:
“And” between values parts separate entries of the source, which are not always exact repeats. Equal values may be shown once. Where a name gives a salt, the structure may show the parent alone. ± gives the standard deviation of the averaged measurements. The list shows a part of the results. Most values come without repeats; read them as rough.

Test system: RAW 264.7
Assay: HMGB1-induced TNF-alpha production relative to HMGB1-stimulated control; higher = more TNF-alpha secretion (less inhibition)
Details: stimulus: HMGB1 5 ug/ml, 18 h
[1] = compound concentration: 1 ug/ml

Structure (SMILES)	HMGB1-induced TNF-alpha production (compound concentration: 3 uM)	HMGB1-induced TNF-alpha production [1] [%]
C=CCN1CCc2c(cc(O)c(O)c2Cl)C(c2ccccc2)C1 (racemic) [(±)-Chloro-APB hydrobromide]	105%	–
Cc1ccc(/C(=C\CN2CCCC2)c2ccccn2)cc1 [Triprolidine hydrochloride]	88.9 ± 17%	–
Cc1ccc(/C(=C\CN2CCCC2)c2ccccn2)cc1	81.6%	–
C=C1/C(=C\C=C2/CCC[C@]3(C)[C@@H]([C@H](C)CCCC(C)(C)O)CC[C@@H]23)C[C@@H](O)C[C@@H]1O	93%	–
C=C1/C(=C\C=C2/CCC[C@]3(C)[C@@H]([C@H](C)CCCC(C)(C)O)CC[C@@H]23)C[C@@H](O)C[C@@H]1O [Calcitriol]	81.1%	–
CC(C)(O/N=C(\C(=O)N[C@@H]1C(=O)N2C(C(=O)[O-])=C(C[n+]3ccccc3)CS[C@H]12)c1csc(N)n1)C(=O)O	86.8%	–
CC(C)(O/N=C(\C(=O)N[C@@H]1C(=O)N2C(C(=O)[O-])=C(C[n+]3ccccc3)CS[C@H]12)c1csc(N)n1)C(=O)O [Ceftazidime pentahydrate]	65%	–
CC(C)(O/N=C(\C(=O)N[C@@H]1C(=O)N2C(C(=O)[O-])=C(C[n+]3ccccc3)CS[C@H]12)c1csc(N)n1)C(=O)O [Ceftazidime]	91.8%	–
Cc1c(Cl)cccc1Nc1ncccc1C(=O)O [Clonixin Lysinate]	128%	–
O=c1onc2n1-c1cc(Br)ccc1OC2	114%	–
CN1CCN(C(c2ccccc2)c2ccc(Cl)cc2)CC1 (stereo unspecified) [Chlorcyclizine hydrochloride]	95%	–
CN1CCN(C(c2ccccc2)c2ccc(Cl)cc2)CC1 (stereo unspecified)	79.1%	–
Nc1ncnc2c1ncn2[C@@H]1O[C@H](COP(=O)(O)CP(=O)(O)OP(=O)(O)O)[C@H](O)C1O (stereo partly drawn) [alpha,beta-Methylene adenosine 5'-triphosphate dilithium]	112%	–
O=C(N/N=C/c1ccc([N+](=O)[O-])o1)c1ccc(O)cc1 [Nifuroxazide]	69.6%	–
O=C(N/N=C/c1ccc([N+](=O)[O-])o1)c1ccc(O)cc1	62.7%	–
O=C1C=CC(=O)c2c1ccc1c2ccc2ccccc21 [Chrysene-1,4-quinone]	102%	–
NC(=O)c1ncn([C@@H]2O[C@H](CO)[C@@H](O)[C@H]2O)c1O	72.6%	–
NC(=O)c1ncn([C@@H]2O[C@H](CO)[C@@H](O)[C@H]2O)c1O [Mizoribine]	109%	–
CC(=O)Nc1ccc(S(=O)(=O)Nc2ccc([N+](=O)[O-])cc2)cc1	86.5%	–
CCC(=O)[C@@]1(C)[C@H](C)C[C@H]2[C@@H]3CCC4=CC(=O)C=C[C@]4(C)[C@H]3[C@@H](O)C[C@@]21C [Rimexolone]	40.4%	–
Cc1ccc(C(=O)Nc2ccc(S(=O)(=O)O)c3cc(S(=O)(=O)O)cc(S(=O)(=O)O)c23)cc1NC(=O)c1cccc(NC(=O)Nc2cccc(C(=O)Nc3cc(C(=O)Nc4ccc(S(=O)(=O)O)c5cc(S(=O)(=O)O)cc(S(=O)(=O)O)c45)ccc3C)c2)c1 [Suramin]	93.1%	–
Cc1ccc(C(=O)Nc2ccc(S(=O)(=O)O)c3cc(S(=O)(=O)O)cc(S(=O)(=O)O)c23)cc1NC(=O)c1cccc(NC(=O)Nc2cccc(C(=O)Nc3cc(C(=O)Nc4ccc(S(=O)(=O)O)c5cc(S(=O)(=O)O)cc(S(=O)(=O)O)c45)ccc3C)c2)c1	107 ± 7.7%	–
Cc1ccc(C(=O)Nc2ccc(S(=O)(=O)O)c3cc(S(=O)(=O)O)cc(S(=O)(=O)O)c23)cc1NC(=O)c1cccc(NC(=O)Nc2cccc(C(=O)Nc3cc(C(=O)Nc4ccc(S(=O)(=O)O)c5cc(S(=O)(=O)O)cc(S(=O)(=O)O)c45)ccc3C)c2)c1 [Suramin sodium salt]	91.6%	–

Not a retest: entries from further up.
Structure (SMILES)	HMGB1-induced TNF-alpha production (compound concentration: 3 uM)	HMGB1-induced TNF-alpha production [1] [%]
Cc1ccc(/C(=C\CN2CCCC2)c2ccccn2)cc1	81.6%	–
C=C1/C(=C\C=C2/CCC[C@]3(C)[C@@H]([C@H](C)CCCC(C)(C)O)CC[C@@H]23)C[C@@H](O)C[C@@H]1O	93%	–

(continued)

Structure (SMILES)	HMGB1-induced TNF-alpha production (compound concentration: 3 uM)	HMGB1-induced TNF-alpha production [1] [%]
CCc1cc(C(N)=S)ccn1	89.6%	–
CCc1cc(C(N)=S)ccn1 [Ethionamide]	65.8%	–
CC(=O)Nc1c(I)c(NC(C)=O)c(I)c(C(=O)O)c1I	88%	–
Nc1ncnc2c1ncn2[C@@H]1O[C@H](COC(=O)CCC(=O)O)[C@@H](O)[C@H]1O [Adenosine 5'-succinate]	–	62.3
CC(=O)N[C@H]1[C@H]([C@H](O)[C@H](O)CO)OC(C(=O)O)=C[C@@H]1O [N-Acetyl-2,3-dehydro-2-deoxyneuraminic acid]	86%	–
Cn1cc(C2=C(c3ccc(Cl)cc3Cl)C(=O)NC2=O)c2ccccc21	112%	–
CN(N=O)C(=O)N[C@@H](C=O)[C@@H](O)[C@H](O)[C@H](O)CO [Streptozotocin]	105%	–
CCCCCCCCCCC(C)(C)C(=O)Nc1c(OC)cc(OC)cc1OC	104%	–
CN=C(N)NCCC[C@H](N)C(=O)O [L-Ornithine, N5-[imino(methylamino)methyl]-[CAS]]	102%	–
CCn1cc(C(=O)O)c(=O)c2cc(F)c(N3CCN(C)CC3)cc21	105% and 93.6%	–
CCn1cc(C(=O)O)c(=O)c2cc(F)c(N3CCN(C)CC3)cc21 [Pefloxacine]	76.5 ± 11%	–
CC[C@]12CCCN3CCc4c(n(c5ccccc45)C(=O)C1)[C@@H]32 [Eburnamonine (-)]	110%	–
CC[C@]12CCCN3CCc4c(n(c5ccccc45)C(=O)C1)[C@@H]32	76.3%	–
O=C([O-])CC(O)(CC(=O)[O-])C(=O)[O-].[Fe+3] [Ferric citrate]	–	78.6
CC#CCOC(=O)c1c(C)nc2sc3c(c2c1N)CCC(O)C3 (stereo unspecified)	113%	–
Cc1ccc(S(=O)(=O)NCl)cc1	90.4%	–
O[C@H]1[C@H](O)[C@@H](O)[C@@H]2O[C@@H]2[C@@H]1O (racemic) [Conduritol B epoxide]	85.2%	–
C[C@@H]1CN(c2c(F)c(N)c3c(=O)c(C(=O)O)cn(C4CC4)c3c2F)C[C@H](C)N1 [Sparfloxacin]	77.2 ± 8.1%	–
C[C@@H]1O[C@@H]1P(=O)(O)O [Phosphomycin disodium]	103%	–
C[C@@H]1O[C@@H]1P(=O)(O)O	101%	–
Cn1c(=O)c2[nH]c(-c3ccc(S(=O)(=O)O)cc3)nc2n(C)c1=O [8-(p-Sulfophenyl)theophylline]	94.2%	–
CN1CCN(C2=Nc3ccccc3Sc3ccc(Cl)cc32)CC1 [Clothiapine]	74.6%	–
COc1ccc2oc(-c3ccc(O)cc3)cc(=O)c2c1	–	44.7
